One substance from article PMC3842841, “VacA, the vacuolating cytotoxin of Helicobacter pylori, binds to multimerin 1 on human platelets” (Thrombosis Journal, 2013) can be followed below.

Protein sequences, listed by entry. Tags and fused reporters are not part of them. Lines headed by an entry give the natural chain unless they say otherwise; changes in a name come on top.
UniProt Q48245: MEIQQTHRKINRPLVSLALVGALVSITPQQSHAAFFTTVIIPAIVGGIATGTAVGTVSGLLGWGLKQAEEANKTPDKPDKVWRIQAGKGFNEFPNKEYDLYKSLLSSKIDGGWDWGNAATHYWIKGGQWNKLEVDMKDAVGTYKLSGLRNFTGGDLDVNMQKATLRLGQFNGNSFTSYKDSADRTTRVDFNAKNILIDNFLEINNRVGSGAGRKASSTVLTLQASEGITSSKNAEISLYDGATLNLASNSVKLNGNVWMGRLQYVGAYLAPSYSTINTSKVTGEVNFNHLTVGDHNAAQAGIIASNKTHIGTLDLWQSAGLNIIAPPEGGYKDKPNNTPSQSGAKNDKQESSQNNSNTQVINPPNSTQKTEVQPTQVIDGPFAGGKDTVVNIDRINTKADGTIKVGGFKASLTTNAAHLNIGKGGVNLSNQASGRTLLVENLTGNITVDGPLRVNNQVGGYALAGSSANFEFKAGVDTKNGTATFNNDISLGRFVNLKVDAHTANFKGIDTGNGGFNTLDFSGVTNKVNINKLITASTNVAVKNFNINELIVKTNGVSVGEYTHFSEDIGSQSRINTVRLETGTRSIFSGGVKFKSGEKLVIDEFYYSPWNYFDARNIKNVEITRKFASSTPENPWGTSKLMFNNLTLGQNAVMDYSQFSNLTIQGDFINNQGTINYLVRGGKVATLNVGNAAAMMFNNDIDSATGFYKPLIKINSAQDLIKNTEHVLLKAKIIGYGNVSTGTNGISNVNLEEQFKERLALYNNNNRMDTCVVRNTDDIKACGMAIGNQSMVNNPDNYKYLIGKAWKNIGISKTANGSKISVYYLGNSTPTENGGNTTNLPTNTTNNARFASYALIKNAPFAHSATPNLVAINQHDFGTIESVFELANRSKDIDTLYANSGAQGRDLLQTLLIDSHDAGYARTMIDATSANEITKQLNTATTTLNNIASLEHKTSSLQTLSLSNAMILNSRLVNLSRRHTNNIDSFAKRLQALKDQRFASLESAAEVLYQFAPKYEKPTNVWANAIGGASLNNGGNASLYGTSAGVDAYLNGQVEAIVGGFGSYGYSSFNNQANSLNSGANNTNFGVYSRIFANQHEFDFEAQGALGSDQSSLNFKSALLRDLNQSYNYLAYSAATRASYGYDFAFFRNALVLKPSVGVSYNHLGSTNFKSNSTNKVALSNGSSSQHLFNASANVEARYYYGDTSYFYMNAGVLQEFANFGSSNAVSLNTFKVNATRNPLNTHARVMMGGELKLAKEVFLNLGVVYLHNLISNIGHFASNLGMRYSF

Results are given in words; binding and its absence hold for the method and conditions named. Binding can be weak; no strength is given. For some assays here: Tags and fused reporters may be left off the sequences shown.

The target in assay [1] is T1, Glutathione S-transferase (GST)-fusion protein of multimerin 1 (291a.a. ~ 391a.a.) (human) (UniProt Q13201).
T1 sequence: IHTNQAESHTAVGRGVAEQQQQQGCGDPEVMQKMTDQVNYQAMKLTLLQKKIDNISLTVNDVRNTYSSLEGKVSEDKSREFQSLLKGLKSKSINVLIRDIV
Briefly: pull-down; GST-MMRN1 (291-391) with VacA; no details given; both purified.

The target in assay [2] is T2, synthetic peptide 3 of MMRN1 (321-340) (human).
T2 sequence (peptide): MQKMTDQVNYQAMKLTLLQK
Put plainly: far-Western, overlay or dot blot; peptides (2.5 μL, 5 mM) spotted on PVDF membrane, blocked with 1% BSA; 10 ng/mL VacA, 1 h at room temperature; detected with anti-VacA polyclonal antibody; both purified.

“VacA, the vacuolating cytotoxin of Helicobacter pylori (from UniProt Q48245)”: the binding result in assay [1] and in assay [2] was “binds” throughout.
